Assay results: patent US8076287B2, “Cyclic hexadepsipeptides, processes for their production and their use as pharmaceuticals” (priority 2006, dated 2011)
At least one compound was matched to its structure with a doubt left.

Tested on: human MX-1 breast carcinoma xenograft
Experiment: In vivo efficacy in human breast cancer xenograft model
Parameters: species or system Harlan female athymic nude mice
Conditions: 1 mg/kg i.p.
Protocol: The antitumor activity of Compound 1 was tested in vivo in a human MX-1 breast carcinoma model in mice, formulated in 10% ethanol, 7.5% ethanolic polysorbate 80 (1 g/mL in ethanol), and 82.5% saline. Harlan female athymic nude mice (12 weeks of age on Day 1 (D1)) were used for this study. Human MX-1 carcinoma was maintained in athymic nude mice by serial engraftment. A tumor fragment (1 mm^3) was implanted subcutaneously into the right flank of each test mouse. Tumors were monitored twice weekly and then daily as their mean volume approached 80-120 mm^3.
On D1, animals were sorted into treatment groups 1 to 4 (groups 1 to 3: 9 mice; group 4:10 mice), with tumor sizes of 63-144 mm^3 and group mean tumor sizes of about 99 mm^3. Tumor volumes were calculated as (width^2×length) divided by 2. […]
Tumor measurements were taken twice weekly using calipers and were converted to tumor weight. Tumor weight was estimated with the assumption that 1 mg is equivalent to 1 mm^3 of tumor volume (tumor volume was determined as above). Body weights were also recorded daily for Day 1 to 5, and then twice weekly.
Each animal was euthanized when its neoplasm reached the predetermined endpoint size (1,500 mm^3). The “time to endpoint” (TTE) for each mouse was calculated by the following equation: […]
The “percentage of tumor growth inhibition” (TGI) is calculated as: […]

**Q.** What does the source list for `CCC1OC(O)(C(C)(O)C(=O)NC2C(=O)N3NCCCC3C(=O)N(O)CC(=O)N3NCCCC3C(=O)N3CCC(C)(O)C3C(=O)N(O)C(C(C)C)C(=O)OC2C(C)C)CCC1CC(C)C` (centres unmarked) [Compound 1]?
**A.** inhibition of tumor growth (MX-1 xenograft in mice, P<0.01): highly significant inhibition of tumor growth; tumor free survivors (group of 10 mice): two
